{
  "source": "patent US20110262917",
  "key": {"[1]": {"tested_on": "Iron responsive protein (IRP), cytosolic liver extract", "assay": "EMSA", "conditions": "protein in an extract, label: biotin"}, "[2]": {"tested_on": "Iron responsive protein (IRP), HA-tagged", "assay": "pull-down", "conditions": "3'-biotin-PEG4-alkane cytidine bisphosphate ligated; 10 mM HEPES pH 7.3, 20 mM KCl, 1 mM MgCl2, 1 mM DTT, 10% glycerol, RT, UV cross-linked; streptavidin agarose; protein translated in vitro; label: biotin"}},
  "note": "The exact form of at least one protein or probe is not confirmed. For some of these results: Where cells or extracts were used, other partners may take part. For some of these results: A negative result means that nothing was seen under these conditions.",
  "data": [
    {"sequence": "UCCUGCUUCAACAGUGCUUGGACGGAA [IRE RNA]", "values": [
      {"measurement": "binding result", "setting": "[1]; 3'-biotin-PEG4-alkane cytidine bisphosphate ligated, 10 mM HEPES pH 7.3, 20 mM KCl, 1 mM MgCl2, 1 mM DTT, tRNA, 5% glycerol, RT, unlabeled competitor tested", "result": "binds"},
      {"measurement": "binding result", "setting": "[2]", "result": "binds"}
    ]},
    {"sequence": "UCCUGCUUCAACAGUGCUUGGACGGAA [IRE RNA with alkene-linked biotin cytidine]", "values": [
      {"measurement": "binding result", "setting": "[1]; 3'-biotin-linker-alkene cytidine bisphosphate ligated, ligated but no functional bandshift, variant of IRE RNA", "result": "no binding"}
    ]},
    {"sequence": "UCCUGCUUCAACAGUGCUUGGACGGAA [IRE RNA with alkyne-linked biotin cytidine]", "values": [
      {"measurement": "binding result", "setting": "[1]; 3'-biotin-linker-alkyne cytidine bisphosphate ligated, no functional shift, alkyne linkage reactive with liver extract, variant of IRE RNA", "result": "no binding"}
    ]}
  ]
}
